Measurements published in publication PMC7157767.
Results are given in words; binding and its absence hold for the method and conditions named. Binding seen in cells or lysates may run through a third protein. Some entries that bind do so weakly or less than the wild type.

Amino acid sequences for entries named in this document (tags omitted). A change or cut given only in a name is not applied to a line headed by its entry.
UniProt Q16531: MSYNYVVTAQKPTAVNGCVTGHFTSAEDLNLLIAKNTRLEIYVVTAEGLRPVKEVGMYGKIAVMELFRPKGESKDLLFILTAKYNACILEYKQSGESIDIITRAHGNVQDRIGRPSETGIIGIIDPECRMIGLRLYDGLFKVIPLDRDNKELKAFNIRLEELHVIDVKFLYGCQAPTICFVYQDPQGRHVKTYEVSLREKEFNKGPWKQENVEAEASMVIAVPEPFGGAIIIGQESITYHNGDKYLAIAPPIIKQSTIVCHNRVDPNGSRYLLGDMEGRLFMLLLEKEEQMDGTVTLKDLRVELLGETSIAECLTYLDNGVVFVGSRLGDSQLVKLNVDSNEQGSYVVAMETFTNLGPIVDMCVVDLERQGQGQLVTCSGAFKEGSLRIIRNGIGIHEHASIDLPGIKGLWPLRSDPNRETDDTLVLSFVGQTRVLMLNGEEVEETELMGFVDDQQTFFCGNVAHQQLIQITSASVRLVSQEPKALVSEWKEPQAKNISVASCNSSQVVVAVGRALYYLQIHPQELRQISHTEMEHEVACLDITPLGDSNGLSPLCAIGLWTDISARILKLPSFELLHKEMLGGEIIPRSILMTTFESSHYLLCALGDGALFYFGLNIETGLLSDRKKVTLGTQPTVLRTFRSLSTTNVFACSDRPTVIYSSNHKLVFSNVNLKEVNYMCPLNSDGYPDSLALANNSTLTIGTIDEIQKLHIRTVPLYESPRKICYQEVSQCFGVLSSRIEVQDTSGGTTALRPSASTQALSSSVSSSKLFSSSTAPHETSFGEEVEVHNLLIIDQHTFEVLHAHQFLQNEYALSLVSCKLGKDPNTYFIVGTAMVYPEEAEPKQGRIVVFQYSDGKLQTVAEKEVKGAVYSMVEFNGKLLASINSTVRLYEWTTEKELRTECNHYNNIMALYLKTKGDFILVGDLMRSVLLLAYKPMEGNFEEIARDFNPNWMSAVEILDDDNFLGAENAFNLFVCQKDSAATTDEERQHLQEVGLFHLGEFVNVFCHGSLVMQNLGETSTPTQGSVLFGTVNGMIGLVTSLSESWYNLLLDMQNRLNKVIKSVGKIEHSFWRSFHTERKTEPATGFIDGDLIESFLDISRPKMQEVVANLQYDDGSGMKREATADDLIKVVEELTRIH
UniProt Q8TEB1: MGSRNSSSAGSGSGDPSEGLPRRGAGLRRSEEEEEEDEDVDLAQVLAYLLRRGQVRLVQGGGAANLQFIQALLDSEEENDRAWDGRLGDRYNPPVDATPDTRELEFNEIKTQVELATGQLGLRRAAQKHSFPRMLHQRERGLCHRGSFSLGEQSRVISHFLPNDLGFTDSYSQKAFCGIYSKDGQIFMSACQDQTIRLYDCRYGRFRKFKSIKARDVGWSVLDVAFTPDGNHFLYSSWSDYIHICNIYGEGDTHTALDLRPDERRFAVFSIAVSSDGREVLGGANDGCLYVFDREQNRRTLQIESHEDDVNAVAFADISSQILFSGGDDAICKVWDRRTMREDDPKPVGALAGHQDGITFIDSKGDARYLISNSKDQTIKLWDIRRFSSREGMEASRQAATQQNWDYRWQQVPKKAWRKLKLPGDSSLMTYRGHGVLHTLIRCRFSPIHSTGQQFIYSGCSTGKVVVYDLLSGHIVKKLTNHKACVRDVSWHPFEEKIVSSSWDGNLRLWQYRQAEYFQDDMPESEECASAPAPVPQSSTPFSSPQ
UniProt Q5VU92: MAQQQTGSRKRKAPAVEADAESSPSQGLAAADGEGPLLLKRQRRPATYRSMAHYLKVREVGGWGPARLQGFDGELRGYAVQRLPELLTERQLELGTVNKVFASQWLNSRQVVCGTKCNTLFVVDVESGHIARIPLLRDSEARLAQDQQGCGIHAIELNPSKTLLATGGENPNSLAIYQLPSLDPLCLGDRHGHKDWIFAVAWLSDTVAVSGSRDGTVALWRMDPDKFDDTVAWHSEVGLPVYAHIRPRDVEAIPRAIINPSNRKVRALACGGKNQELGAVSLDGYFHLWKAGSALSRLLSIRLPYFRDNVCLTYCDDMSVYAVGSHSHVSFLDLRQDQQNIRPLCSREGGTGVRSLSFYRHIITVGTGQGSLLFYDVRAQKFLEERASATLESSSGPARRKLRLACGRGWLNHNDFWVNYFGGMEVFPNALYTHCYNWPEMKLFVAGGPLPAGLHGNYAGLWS
UniProt P03427: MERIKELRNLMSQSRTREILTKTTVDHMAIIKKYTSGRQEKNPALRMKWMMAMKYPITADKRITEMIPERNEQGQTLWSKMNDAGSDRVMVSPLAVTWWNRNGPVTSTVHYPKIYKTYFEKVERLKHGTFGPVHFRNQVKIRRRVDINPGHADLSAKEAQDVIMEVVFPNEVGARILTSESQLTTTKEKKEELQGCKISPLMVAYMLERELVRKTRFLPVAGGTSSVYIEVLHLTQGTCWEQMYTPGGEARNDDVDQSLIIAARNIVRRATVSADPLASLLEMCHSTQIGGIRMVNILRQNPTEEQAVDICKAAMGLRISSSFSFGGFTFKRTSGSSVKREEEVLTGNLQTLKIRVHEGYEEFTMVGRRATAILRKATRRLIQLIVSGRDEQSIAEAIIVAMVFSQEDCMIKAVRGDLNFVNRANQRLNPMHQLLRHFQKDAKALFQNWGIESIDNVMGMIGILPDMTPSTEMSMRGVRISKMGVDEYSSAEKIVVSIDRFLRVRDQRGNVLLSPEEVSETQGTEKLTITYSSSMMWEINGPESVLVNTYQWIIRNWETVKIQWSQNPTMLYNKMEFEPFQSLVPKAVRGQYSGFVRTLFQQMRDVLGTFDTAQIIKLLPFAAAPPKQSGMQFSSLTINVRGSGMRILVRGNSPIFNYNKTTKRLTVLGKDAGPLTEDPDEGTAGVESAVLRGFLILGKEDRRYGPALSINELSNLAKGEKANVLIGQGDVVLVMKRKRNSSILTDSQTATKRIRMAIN

What was measured:
[1] = molecular target: Strep-DDB1 (human) (UniProt Q16531); assay: split reporter + pull-down
[2] = molecular target: Gluc1-DCAF11 (human) (UniProt Q8TEB1); assay: split reporter + pull-down
[3] = molecular target: Gluc1-DCAF12L1 (human) (UniProt Q5VU92); assay: split reporter + pull-down
[4] = molecular target: Strep-DDB1 (human) (UniProt Q16531); assay: pull-down
[5] = molecular target: Strep-DCAF11 (human) (UniProt Q8TEB1); assay: pull-down
[6] = molecular target: Strep-DCAF12L1 (human) (UniProt Q5VU92); assay: pull-down
[7] = molecular target: Strep-DCAF12L1 (human) (UniProt Q5VU92); assay: split reporter + pull-down
[8] = molecular target: Strep-DCAF11 (human) (UniProt Q8TEB1); assay: split reporter + pull-down
[9] = molecular target: PB2-Strep (expressed by recombinant H1N1WSN-PB2-Strep virus) (influenza A/WSN/33 virus (H1N1WSN)) (UniProt P03427); assay: pull-down

Measured: binding

Gluc2-PB2 (from UniProt P03427 1-759)
binds: [1] | [2] | [3]

3×Flag-PB2 N-terminal (Nt) domain (from UniProt P03427 1-247) (domain or fragment)
binds: [4] | [5]

3×Flag-PB2 C-terminal (Ct) domain (from UniProt P03427 248-759) (domain or fragment)
binds: [4] | [6] | [5]

3×Flag-H1N1WSN PB2 (from UniProt P03427 1-759)
not listed: [2] | [3] | [9]
binds: all other assays above

endogenous DDB1 (from UniProt Q16531 1-1140)
binds: [9]
